Results published in PubChem BioAssay AID743255 (National Center for Advancing Translational Sciences (NCATS), 2014).
Out of some 390,000 compounds screened, about 910 (0.23%) were called active. This list was built around the results that the source calls inconclusive (neither active nor inactive); the mix of calls is not that of the screen. Calls come from the whole dose curve; as a rule, active = well fitted inhibition curve with a large enough effect; inconclusive = small, poorly fitted or top-dose-only effect; inactive = no such curve, though single readings can be large or run the other way. Potencies of inconclusive entries are doubtful fits and often do not repeat.

The chains behind the UniProt entries cited, without tags or fusion partners. Where a name states a change or a piece, a line headed by the entry shows the natural chain unless it says otherwise.
UniProt O94782: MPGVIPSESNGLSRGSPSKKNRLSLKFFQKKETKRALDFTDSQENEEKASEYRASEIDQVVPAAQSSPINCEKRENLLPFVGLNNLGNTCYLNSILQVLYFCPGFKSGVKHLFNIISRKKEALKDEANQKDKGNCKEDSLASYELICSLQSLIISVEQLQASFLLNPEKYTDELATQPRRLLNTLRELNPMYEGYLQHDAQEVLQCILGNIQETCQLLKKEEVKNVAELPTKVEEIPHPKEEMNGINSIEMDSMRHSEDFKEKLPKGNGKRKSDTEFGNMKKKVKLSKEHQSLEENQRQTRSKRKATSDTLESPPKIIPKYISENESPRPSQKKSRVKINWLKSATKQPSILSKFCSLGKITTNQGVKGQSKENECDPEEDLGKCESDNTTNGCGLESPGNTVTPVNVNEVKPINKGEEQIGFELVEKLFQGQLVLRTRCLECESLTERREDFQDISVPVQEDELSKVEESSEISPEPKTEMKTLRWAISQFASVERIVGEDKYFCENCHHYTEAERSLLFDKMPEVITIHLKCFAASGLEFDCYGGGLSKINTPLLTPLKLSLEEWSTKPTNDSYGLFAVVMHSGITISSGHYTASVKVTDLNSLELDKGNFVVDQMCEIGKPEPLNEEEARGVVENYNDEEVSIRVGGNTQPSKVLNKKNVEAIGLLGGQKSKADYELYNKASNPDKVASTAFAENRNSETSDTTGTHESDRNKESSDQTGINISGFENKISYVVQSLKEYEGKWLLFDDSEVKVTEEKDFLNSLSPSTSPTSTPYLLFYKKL

The compounds below were run against Ubiquitin carboxyl-terminal hydrolase 1 (Homo sapiens) (UniProt O94782) (assay: Inhibitors of USP1/UAF1: Primary Screen). Conditions: recombinant USP1/UAF1, Ub-Rhodamine cleavage fluorescence; activity change, negative = inhibition: at 57.1 µM (top of the series).
Procedure, shortened: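 USP1/UAF1 complex (1 nM) preincubated 15 min at room temperature with compound, then Ub-Rho substrate (150 nM final) added. Kinetic fluorescence at 480/540 nm over 6 reads at 60 s intervals; 50 mM HEPES pH 7.8, 0.5 mM EDTA, 0.1 mg/ml BSA, 1 mM TCEP, 0.01% Tween-20.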
% is set by controls: 0 for no effect and ±100 for the full control effect; potency is the fitted concentration of half-maximal effect.
Note: nearly all actives have a fitted effect of over 60% in size.

Potency, inconclusive:
Cc1nn(CCc2nn[nH]n2)c2nc(-c3ccc(C4CCCCC4)cc3)cc(C(F)(F)F)c12 22.4 µM [inhibitor, partial curve]
Cc1cc(C)c(C)c(S(=O)(=O)N2CCC(C(=O)N3CCCCCCC3)CC2)c1C 100 µM [inhibitor, partial curve, poor fit]
COCCCC/C(=N\OCCN)c1ccc(C(F)(F)F)cc1 25.1 µM [inhibitor, partial curve]
COc1ccc(OC)c(/C=C2\SC(=S)N(NS(=O)(=O)c3ccc(C)cc3)C2=O)c1 44.7 µM [inhibitor, partial curve, poor fit]
CC1(OC(=O)CCc2ccccc2)C(=O)C=C2C=C(c3ccc(C#N)cc3)N(CC3CC3)C=C2C1=O (configuration not stated) 3.98 µM [inhibitor, full curve, poor fit]
Cc1cc(C(=O)Nc2ccccc2[N+](=O)[O-])cs1 50.1 µM [inhibitor, partial curve, poor fit]
CC1NC(=O)c2cc3ccccc3cc2-n2c1nc1ccc(F)cc1c2=O (configuration not stated) 0.355 µM [inhibitor, full curve]
COc1ccccc1-c1cc(C(F)(F)F)n2ncc(C(=O)N3CCc4ccccc4C3)c2n1 14.1 µM [inhibitor, partial curve]
COc1ccccc1OCCn1c(NC(=O)c2ccccc2)nc2ccccc21 0.562 µM [inhibitor, full curve, poor fit]
O=C1CCC2CN3CCc4c([nH]c5ccccc45)C3CC2C1 (configuration not stated) 28.2 µM [inhibitor, partial curve]
C[C@@H](NC(=O)c1nc[nH]c1C(=O)N[C@@H](CCCCNC(=O)OC(C)(C)C)C(=O)OC(C)(C)C)c1ccccc1 2 µM [inhibitor, full curve, poor fit]
O=C(/C=C/c1ccccn1)c1cc(Cl)cc(Cl)c1O 22.4 µM [inhibitor, partial curve, poor fit]
O=C(C1CCN(S(=O)(=O)c2cccs2)CC1)N1CCc2ccccc2C1 35.5 µM [inhibitor, single point]
O=C1Nc2ccccc2Nc2ccc([N+](=O)[O-])cc21 28.2 µM [inhibitor, partial curve]
CC(=O)c1ccc(NC(=O)/C=C/c2ccc(C)o2)cc1 0.631 µM [inhibitor, full curve, poor fit]
Cc1cccc(-c2nnn3c2nc(NCCC(C)C)c2ccccc23)c1 6.31 µM [inhibitor, full curve, poor fit]
C[C@@H](O)CNC(=O)c1[nH]cnc1C(=O)Nc1cccc(Cl)c1 0.251 µM [inhibitor, full curve, poor fit]
Cc1cc2c(cc1S(=O)(=O)N1CCC(C(N)=O)CC1)OCC(=O)N2 11.2 µM [inhibitor, partial curve, poor fit]
COC(=O)c1ccc(OC)c(CSc2nnc(COc3ccc(OC)cc3)o2)c1 35.5 µM [inhibitor, partial curve, poor fit]
COc1ccc(Nc2cc(C(=O)NCc3ccccc3)c3ccccc3n2)cc1 4.47 µM [inhibitor, single point]
CCCCCCOc1ccc(N2C(=O)CC(S/C(N)=N/N=C(\C)c3cccs3)C2=O)cc1 (configuration not stated) 12.6 µM [inhibitor, partial curve]
Cc1cccc(OCC(=O)NCC2(N3CCN(C)CC3)CCCCC2)c1 0.251 µM [inhibitor, full curve, poor fit]
CC1CCCN(C(=O)c2cc3c(-c4ccc(Cl)cc4)nn(C)c3s2)C1 (configuration not stated) 39.8 µM [inhibitor, partial curve]
CC(=O)NC(CCCCNC(=S)NC1CCCCC1)C(=O)O (configuration not stated) 7.08 µM [inhibitor, single point]
COC(=O)c1cc(OC)c(OC)cc1N1C(=O)CCCC1=O 44.7 µM [inhibitor, partial curve]
C=CCn1c(C)cc(C(=O)CN2C(=O)c3ccccc3C2=O)c1C 1.12 µM [inhibitor, full curve, poor fit]
COc1ccc(CC(=O)Nc2nc(C(C)(C)C)cs2)cc1 50.1 µM [inhibitor, partial curve, poor fit]
CC(Sc1nnc(Cc2cccs2)n1C1CCCCC1)C(=O)N1CCc2ccccc21 (configuration not stated) 89.1 µM [inhibitor, partial curve, poor fit]
CN1CCN(c2ccc(S(=O)(=O)N3CCCCC3)cc2NC(=O)/C=C/c2ccc(OC(F)F)cc2)CC1 0.708 µM [inhibitor, full curve]

Activity change, negative = inhibition, inactive:
COc1ccccc1OCCCCNCCO -9.82%
O=C(NCc1ccccc1)c1ccc(Cn2c(=O)c3cccn3c3cccnc32)cc1 -7.93%
Cc1cccc(NC(=O)CSc2nc3sc(C)cc3c(=O)n2C)c1 -18.5%
CCN(Cc1ccccc1)C1CCN(Cc2ccc(SC)cc2)CC1 -19.1%
O=C(NCCO)c1ccc(Oc2ccc(C(F)(F)F)cc2[N+](=O)[O-])cc1 -18.3%
CCOC(=O)/C(=C\c1cccc(O)c1)c1nc2sc(C)c(C)c2c(=O)[nH]1 -16.4%
COc1ccc(C(CNC(=O)c2ccc(NS(=O)(=O)c3ccc4c(c3)OCCO4)cc2)N(C)C)cc1 (configuration not stated) -17.5%
O=C(NCc1ccccc1)c1cccc(COc2ccc(Cl)cc2)c1 -12.1%
S=C(Nc1ccccc1)Nc1ccccn1 -11.2%
S=c1[nH]nc(CSc2nc3ccccc3s2)n1C1CCCCC1 -14.4%
CNc1nc(OC)nc(N2CCOCC2)n1 -17.2%
Cc1ccc(S(=O)(=O)NCc2ccccc2)cc1C(=O)N(C)Cc1ccccc1F -9.94%
N#C/C(=C\c1ccccc1)C(=O)NNS(=O)(=O)c1ccc(Br)cc1 -20.9%

A run of entries from the list above, for reference:
Activity change, negative = inhibition, inactive:
O=C(NCc1ccccc1)c1ccc(Cn2c(=O)c3cccn3c3cccnc32)cc1 -7.93%
Cc1cccc(NC(=O)CSc2nc3sc(C)cc3c(=O)n2C)c1 -18.5%
CCN(Cc1ccccc1)C1CCN(Cc2ccc(SC)cc2)CC1 -19.1%
O=C(NCCO)c1ccc(Oc2ccc(C(F)(F)F)cc2[N+](=O)[O-])cc1 -18.3%
